PubChem BioAssay AID686938 – Drosophila RNAi Screening Center | 2013
The deposit covers about 23,000 reagents; this is a random part of those with a known target gene and a result. Of all reagents, 75 (0.33%) were called active. 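Raw plate signals without normalisation; calls rest on plate z-scores that were not deposited; ratio present for only 364 wells.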 The numbers tell different reagents against one gene apart. Names joined by + are all predicted targets of the reagent. Not given: the dose of the treatment.

Purpose: 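Fly genes required for calcium entry once internal stores are emptied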 (primary screen)
Cell system: Drosophila S2R+ cells
Reagent: long dsRNA against Drosophila genes, about 0.25 µg dsRNA per well, roughly 10,000 cells
Duration: 5 days of knock-down before the calcium assay
Conditions: thapsigargin (SERCA pump blocker) to empty calcium stores; entry signal taken 4 min after adding it
Read-out: 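Per-well fluo-4 fluorescence in two replicates, unnormalised, measured in resting cells and 4 min after store depletion by the SERCA blocker thapsigargin; ratio of the two present in few wells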
Reading the numbers: calcium entry signal: higher = stronger calcium signal after store depletion; resting calcium signal: higher = higher resting calcium signal
Active means: 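Called when the plate z-score of the entry-to-rest ratio, mean of duplicates, falls below −3; wells with low overall dye signal (Fmax z below −2) or more than five off-targets excluded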
Calls: active = strongly reduced calcium entry; inactive = no strong reduction

no.	target	reagent	calcium entry signal, replicate 1 (fluorescence units)	calcium entry signal, replicate 2 (fluorescence units)	resting calcium signal, replicate 1 (fluorescence units)	resting calcium signal, replicate 2 (fluorescence units)	Outcome
1	CG32225	1	3.14e7	4.99e7	1.65e7	2.17e7	inactive
2	CG15548	1	4.51e7	5.99e7	2.37e7	2.47e7	inactive
3	TwdlB	1	1.58e7	3.49e7	9.43e6	1.56e7	inactive
4	Cpr49Ad	1	3.28e7	3.77e7	1.70e7	1.81e7	inactive
5	Pcyt1	1	3.36e7	2.92e7	1.60e7	1.53e7	inactive
6	dsx	1	2.44e7	3.16e7	1.19e7	1.38e7	inactive
7	dsx	2	2.29e7	6.65e7	9.96e6	3.13e7	inactive
8	dsx	3	3.64e7	4.13e7	1.96e7	1.81e7	inactive
9	CG5510	1	4.78e7	5.32e7	2.24e7	2.35e7	inactive
10	CG9646	1	2.92e7	3.56e7	1.44e7	1.75e7	inactive
11	CG16790	1	3.60e7	2.92e7	1.78e7	1.59e7	inactive
12	CG17744	1	3.93e7	4.14e7	1.82e7	1.91e7	inactive
13	Rb97D	1	2.84e7	4.26e7	1.51e7	1.92e7	inactive
14	Jheh2	1	5.11e7	3.63e7	2.03e7	1.95e7	inactive
15	Chchd2	1	4.49e7	2.92e7	2.28e7	1.53e7	inactive
16	CG2681	1	3.73e7	4.47e7	1.84e7	1.99e7	inactive
17	Naglu	1	4.49e7		2.45e7		inactive
18	CG34005	1	1.56e7	3.54e7	7.90e6	2.51e7	inactive
19	CG14383	1	2.23e7	2.90e7	1.15e7	4.31e7	inactive
20	Lcp65Aa	1	2.85e7	3.92e7	1.34e7	1.60e7	inactive
21	CG13063	1	4.62e7	5.45e7	2.06e7	2.34e7	inactive
22	endos	1	2.73e7	3.26e7	1.20e7	2.21e7	inactive
23	vig2	1	3.96e7	3.29e7	2.03e7	1.49e7	inactive
24	CG3788	1	4.35e7	4.31e7	2.09e7	2.01e7	inactive
25	Galphaq	1	3.95e7	4.34e7	1.70e7	2.06e7	inactive
26	Ubc2	1	4.79e7	5.59e7	2.29e7	2.44e7	inactive
27	Ubc2	2	3.26e7	4.92e7	1.59e7	2.05e7	inactive
28	CG13318	1	4.97e7	4.99e7	2.34e7	2.31e7	inactive
29	ttm50	1	3.69e7	4.02e7	1.66e7	1.88e7	inactive
30	CG13983	1	3.83e7	4.18e7	1.91e7	1.94e7	inactive
31	CG31087	1	3.47e7	8.80e7	1.84e7	3.21e7	inactive
32	CG9899	1	3.94e7	4.38e7	2.03e7	2.04e7	inactive
33	ZnT77C	1	2.80e7	4.57e7	1.41e7	2.02e7	inactive
34	ZnT77C	2	2.78e7	4.98e7	1.42e7	2.06e7	inactive
35	Obp57c	1	2.84e7	4.98e7	2.06e7	2.17e7	inactive
36	CG32295	1	3.77e7	3.08e7	2.19e7	1.27e7	inactive
37	CG1635	1	3.34e7	3.91e7	1.59e7	1.93e7	inactive
38	CG13658	1	3.36e7	4.92e7	1.88e7	2.19e7	inactive
39	ATPsynCF6L	1	3.61e7	5.82e7	1.72e7	2.52e7	inactive
40	CkIIalpha-i3	1	4.10e7	3.74e7	1.99e7	1.75e7	inactive
41	CG2519	1	3.42e7	3.59e7	1.45e7	1.64e7	inactive
42	CG32755	1	2.81e7	5.10e7	1.50e7	2.39e7	inactive
43	GlcAT-I	1	4.73e7	4.27e7	2.57e7	1.93e7	inactive
44	ASPP	1	2.67e7	3.23e7	1.53e7	1.49e7	inactive
45	ASPP	2	4.65e7	3.33e7	2.13e7	1.30e7	inactive
46	CG12868	1	2.34e7	3.71e7	1.21e7	1.59e7	inactive
47	CG1309	1	5.81e7	3.71e7	3.78e7	1.58e7	inactive
48	CG8677 + CG31626	1	1.75e7	3.89e7	8.76e6	1.86e7	inactive
49	CalpB	1	4.64e7	4.07e7	2.79e7	1.63e7	inactive
50	CG13931	1	4.34e7	4.65e7	2.30e7	2.21e7	inactive
51	Catsup	1	4.89e7	3.73e7	2.79e7	2.14e7	inactive
52	Rab2	1	4.40e7		2.18e7		inactive
53	CG9095	1	4.02e7	2.40e7	2.15e7	1.17e7	inactive
54	CG12862	1	2.97e7	4.61e7	1.56e7	1.97e7	inactive
55	mRpS14	1	3.86e7	4.67e7	1.96e7	2.04e7	inactive
56	CG31109	1	4.64e7	6.05e7	2.19e7	2.29e7	inactive
57	CG31457	1	5.35e7	4.17e7	2.79e7	2.00e7	inactive
58	mab-21	1	4.01e7	3.33e7	1.80e7	1.46e7	inactive

In a second layout: 8 of the entries above.
| target | reagent | calcium entry signal, replicate 1 (fluorescence units) | calcium entry signal, replicate 2 (fluorescence units) | resting calcium signal, replicate 1 (fluorescence units) | resting calcium signal, replicate 2 (fluorescence units) | Outcome |
| --- | --- | --- | --- | --- | --- | --- |
| Lcp65Aa | 1 | 2.85e7 | 3.92e7 | 1.34e7 | 1.60e7 | inactive |
| CG13063 | 1 | 4.62e7 | 5.45e7 | 2.06e7 | 2.34e7 | inactive |
| endos | 1 | 2.73e7 | 3.26e7 | 1.20e7 | 2.21e7 | inactive |
| vig2 | 1 | 3.96e7 | 3.29e7 | 2.03e7 | 1.49e7 | inactive |
| CG3788 | 1 | 4.35e7 | 4.31e7 | 2.09e7 | 2.01e7 | inactive |
| Galphaq | 1 | 3.95e7 | 4.34e7 | 1.70e7 | 2.06e7 | inactive |
| Ubc2 | 1 | 4.79e7 | 5.59e7 | 2.29e7 | 2.44e7 | inactive |
| Ubc2 | 2 | 3.26e7 | 4.92e7 | 1.59e7 | 2.05e7 | inactive |
